# Data taken from PubChem BioAssay AID1671190 (National Center for Advancing Translational Sciences (NCATS), 2021).
# By UniProt entry, the sequences of proteins in these tests, tags left out. Where a name states a change or a piece, a line headed by the entry shows the natural chain unless it says otherwise.
# UniProt P18054: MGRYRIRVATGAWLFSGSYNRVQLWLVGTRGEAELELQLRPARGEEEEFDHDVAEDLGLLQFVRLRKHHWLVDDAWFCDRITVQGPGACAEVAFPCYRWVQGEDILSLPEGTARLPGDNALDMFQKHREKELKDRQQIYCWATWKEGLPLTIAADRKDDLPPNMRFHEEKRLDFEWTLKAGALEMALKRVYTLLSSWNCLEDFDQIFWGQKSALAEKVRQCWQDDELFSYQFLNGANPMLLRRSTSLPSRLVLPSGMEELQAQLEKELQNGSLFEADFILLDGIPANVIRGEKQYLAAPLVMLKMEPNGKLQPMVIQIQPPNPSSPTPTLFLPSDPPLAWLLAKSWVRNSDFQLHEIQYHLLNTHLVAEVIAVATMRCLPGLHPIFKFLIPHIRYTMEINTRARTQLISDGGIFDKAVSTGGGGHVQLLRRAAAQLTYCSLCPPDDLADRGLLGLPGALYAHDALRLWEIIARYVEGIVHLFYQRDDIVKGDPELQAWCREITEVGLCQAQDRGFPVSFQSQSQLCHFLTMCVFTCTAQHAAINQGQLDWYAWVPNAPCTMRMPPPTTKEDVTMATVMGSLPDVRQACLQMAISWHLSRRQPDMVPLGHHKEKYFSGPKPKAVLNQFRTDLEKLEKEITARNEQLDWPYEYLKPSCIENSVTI
# Among all 580,000 compounds or so, about 6,100 (1.1%) were called active. Inconclusive means that the source gave no clear call. Such entries were picked first, then a sample of the others. Calls follow the shape of the dose curve; as a rule, active = well fitted inhibition curve with a large enough effect; inconclusive = small, poorly fitted or top-dose-only effect, or another doubt; inactive = no such curve, though single readings can be large or run the other way. Potencies of inconclusive entries are doubtful fits and often do not repeat.
# Molecular target: Polyunsaturated fatty acid lipoxygenase ALOX12 (Homo sapiens) (UniProt P18054)
# Assay: Primary qHTS assay for inhibitors of human arachidonate 12S-lipoxygenase (ALOX12): Round 2
# Details: purified 12hLO, xylenol orange hydroperoxide absorbance; series mostly up to 108 µM
# Method in brief: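 Purified human 12hLO at 150 nM in 25 mM Hepes, 0.01% Triton X-100, pH 7.0, preincubated 15 min at room temperature with compound. Reaction started with 40 uM arachidonic acid, 30 min at room temperature. Hydroperoxide measured by Fe-xylenol orange, 573/405 nm absorbance ratio.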
# Potency is read from the fitted curve at half-maximal effect.
row,Compound,Potency
1,O=C(NC(=S)Nc1ccc2c(c1)OCCO2)c1ccccc1,"inconclusive: 12.6 µM [inhibitor, full curve]"
2,O=C(COc1ccc2nc3n(c(=O)c2c1)CCC3)NC1CCCC1,inactive
3,Fc1cccc(Cl)c1CSc1nnc(-c2c[nH]c3ccccc23)n1C1CC1,"inconclusive: 31.6 µM [inhibitor, single point]"
4,O=C(NCCc1ccccc1)Nc1c(NC2CCCC2)c2ccccc2oc1=O,inactive
5,CCc1ccc(NC(=O)CSc2nnc(C(C)N3C(=O)COc4ccccc43)n2C)cc1 (configuration not stated),"inconclusive: 35.5 µM [inhibitor, partial curve, poor fit]"
6,CCC(=O)Nc1ccc(-c2csc(Nc3ccc(OC)cc3)n2)cc1,"inconclusive: 3.55 µM [inhibitor, full curve, poor fit]"
7,O=C(c1cnc2ccccc2n1)N1CCN(c2ccc(C(F)(F)F)cn2)CC1,inactive
8,COc1ccc(OCc2cc(C(=O)N3CCC(c4ccccc4)CC3)no2)c(Cl)c1,inactive
9,COc1ccccc1N1CCN(C(=O)Nc2ccc(F)c(Cl)c2)CC1,inactive
10,O=C(NC1CCCC1)c1nc(-c2ccco2)oc1-c1ccccc1,"inconclusive: 39.8 µM [inhibitor, partial curve, poor fit]"
11,COc1cc(NC(=O)CC2C(=O)OCCN2Cc2ccccc2)cc(OC)c1 (configuration not stated),"inconclusive: 7.94 µM [inhibitor, full curve]"
12,Cc1ccc(C2c3cc(OCc4nc(C(=O)NCC(C)C)co4)ccc3CCN2C(=O)C2CC2)cc1 (configuration not stated),inactive
13,CC(/C=C/c1ccco1)=N\NC(=O)c1cc(C)[nH]n1,inactive
14,CS(=O)(=O)N1CCC[C@@]2(CCN(C(c3ccccc3)c3ccccc3)C2)C1,inactive
15,Cc1ccc(NS(=O)(=O)c2ccc3[nH]c(=O)[nH]c3c2)cc1,"inconclusive: 63.1 µM [inhibitor, partial curve, poor fit]"
16,COc1ccc(-c2cc(=O)n3[nH]c(C(F)(F)F)nc3n2)cc1,"inconclusive: 0.199 µM [inhibitor, full curve, poor fit]"
17,CCOC(=O)CCCNC(=O)COC(=O)c1ccc(O)cc1,inactive
18,Cn1ccc2c(N(Cc3ccccc3)Cc3ccccc3)cc3c(c21)C1CCC3O1 (configuration not stated),active: 11.2 µM
19,CCn1c(=O)c(=O)[nH]c2cc(C(=O)NCc3ccc(F)cc3)ccc21,"inconclusive: 44.7 µM [inhibitor, partial curve, poor fit]"
20,COc1ccc(OC)c(C(=O)NCC2(c3ccc(F)cc3)CCOCC2)c1,"inconclusive: 112 µM [inhibitor, single point]"
21,O=S(=O)(/C=C/c1ccccc1)Nc1ccc2c(c1)OCO2,"inconclusive: 50.1 µM [inhibitor, partial curve, poor fit]"
22,COc1ccc(C(=O)NCC(c2cccnc2)N2CCN(c3ccccc3)CC2)cc1 (configuration not stated),inactive
23,Cc1ccc(OCc2nc(C3CCCCN3C(=O)c3cc(F)ccc3F)no2)cc1 (configuration not stated),"inconclusive: 11.2 µM [inhibitor, partial curve]"

row,Compound,Potency
1,OCC[C@@H]1C[C@H](O)[C@@H](O)[C@]2(OCc3ccc4ccccc4c32)O1,inactive
2,CCN1C(=O)/C(=C2\SC(=S)N(NC(=O)c3ccccc3O)C2=O)c2ccccc21,"inconclusive: 20 µM [inhibitor, full curve, poor fit]"
3,CC1CCCCC1NC(=S)Nc1ccc(SC(F)F)cc1 (configuration not stated),active: 31.6 µM
4,Cc1cc(NC(=O)CSc2nnc(NC(=O)C3CC(=O)N(c4ccccc4)C3)s2)no1 (configuration not stated),inactive
5,COc1ccc(S(=O)Cc2ccc(C(=O)N3CCN(c4cccc(C)c4C)CC3)o2)cc1 (configuration not stated),"inconclusive: 56.2 µM [inhibitor, partial curve, poor fit]"
6,COC(=O)c1ccc(NS(=O)(=O)c2ccc3ccccc3c2)cc1,"inconclusive: 89.1 µM [inhibitor, single point]"
7,COc1ccc(C(CNC(=O)CNC(=O)c2ccc(F)cc2)N2CCCC2)cc1 (configuration not stated),"inconclusive: 112 µM [inhibitor, single point]"
8,Cc1cc(C2=NNC(=Nc3ccc(S(=O)(=O)N4CCOCC4)cc3)SC2)c(C)n1C,"inconclusive: 15.8 µM [inhibitor, partial curve, poor fit]"
9,Cc1ccc(SCc2cn3ccccc3n2)cc1,"inconclusive: 39.8 µM [inhibitor, partial curve, poor fit]"
10,CCOC(=O)N1CCN(Cc2nc(-c3ccccc3)no2)CC1,"inconclusive: 31.6 µM [inhibitor, single point]"
11,Cc1[nH]c(C(=O)O)c(C#N)c1C(=O)c1ccccc1,inactive
12,COc1cc(CN2CCC(C)(NC(C)=O)CC2)cc(NCc2ccccc2)c1,"inconclusive: 100 µM [inhibitor, partial curve]"
13,O=C(CCC(=O)c1ccc(Cl)cc1)OC1CCCCC1=O (configuration not stated),"inconclusive: 141 µM [inhibitor, single point]"
14,COc1ccc(N2CCC(CNC(=O)Nc3ccc(C)c(C)c3)C2)cc1 (configuration not stated),"inconclusive: 56.2 µM [inhibitor, partial curve, poor fit]"
15,O=C(COC(=O)c1ccco1)Nc1ccc2c(c1)OCCO2,inactive
16,Cc1ccc(CNc2ccc3cc(S(=O)(=O)N4CCCCC4)ccc3n2)cc1,inactive
17,O=C(c1cnc(N2CCN(c3ccccn3)CC2)c2ccccc12)N1CCN(c2cccc(Cl)c2)CC1,inactive
18,Cc1ccc(C(=O)N2CCN(c3cccc(C)c3C)CC2)cc1S(=O)(=O)N1CCOCC1,"inconclusive: 35.5 µM [inhibitor, partial curve, poor fit]"
19,CCC(=O)Nc1ccc(NC(=S)NC(=O)/C=C/c2ccco2)cc1,"inconclusive: 44.7 µM [inhibitor, partial curve, poor fit]"
20,COc1cc(OC)cc(-c2cc3ncccc3cn2)c1,active: 31.6 µM
21,CCc1nc2c(NC(=O)NCCc3ccccc3)cccn2n1,inactive
22,C=CCn1c(=O)c2ccccc2n2c(=S)[nH]nc12,"inconclusive: 35.5 µM [inhibitor, partial curve, poor fit]"
23,CCOCCCNC(=O)/C(C#N)=C/c1ccc(Cl)c([N+](=O)[O-])c1,"inconclusive: 35.5 µM [inhibitor, partial curve, poor fit]"

row,Compound,Potency
1,CC(C)(CC(=O)O)CC(=O)N1Cc2[nH]cnc2C[C@H]1c1nc(-c2ccncc2)no1,"inconclusive: 28.2 µM [inhibitor, single point]"
2,CCN1C(=O)[C@H]2[C@@H](c3ccc(C)cc3)N3C(=O)N(c4ccc(C)cc4)C(=O)[C@@]3(Cc3ccc(Cl)cc3)[C@H]2C1=O,"inconclusive: 56.2 µM [inhibitor, partial curve, poor fit]"
3,C/C(=C\c1ccccc1)CN1CCC(C(=O)N2CCC(C)CC2)CC1,"inconclusive: 10 µM [inhibitor, partial curve, poor fit]"
4,COc1ccc(NC(=O)CN(c2ccc(OC)c(Cl)c2)S(=O)(=O)c2ccccc2)cc1,"inconclusive: 0.708 µM [inhibitor, full curve, poor fit]"
5,COc1ccc(N=C2SC(C(=O)Nc3ccc(OC)cc3)CC(=O)N2CCN2CCOCC2)cc1 (configuration not stated),"inconclusive: 89.1 µM [inhibitor, partial curve, poor fit]"
6,COCCNC(=O)CC(c1ccc(Cl)cc1)c1c[nH]c2ccc([N+](=O)[O-])cc12 (configuration not stated),active: 7.08 µM
7,COc1ccc(OCC(=O)NNC(=S)NC(=O)C2CC2)cc1,"inconclusive: 20 µM [inhibitor, partial curve, poor fit]"
8,CC(=O)C1=C(O)C(=O)N(c2ccc(Br)cn2)C1c1ccccc1[N+](=O)[O-] (configuration not stated),"inconclusive: 3.98 µM [inhibitor, full curve, poor fit]"
9,O=c1c(C(c2ccc(Cl)cc2)c2c(O)nc3n(c2=O)CCCS3)c(O)nc2n1CCCS2,inactive
10,CC(C)(C)c1ccc(C(=O)NC(=S)Nc2ccc(N3CCOCC3)cc2)cc1,"inconclusive: 3.16 µM [inhibitor, full curve, poor fit]"
11,O=c1[nH]c2cc3c(cc2cc1C(c1nnnn1C1CCCC1)N1CCSCC1)OCCO3 (configuration not stated),"inconclusive: 44.7 µM [inhibitor, partial curve, poor fit]"
12,Cc1ccc(S(=O)(=O)Nc2ccc(O)c3cccnc23)cc1,"inconclusive: 79.4 µM [inhibitor, partial curve, poor fit]"
13,N#C/C(=C/c1c[nH]c2ccccc12)C(=O)N1CCCC1,inactive
14,CC(=O)N(CN1C(=O)C2CC=CCC2C1=O)c1cccc(Cl)c1 (configuration not stated),"inconclusive: 3.16 µM [inhibitor, partial curve, poor fit]"
15,CCN(CC)c1ccc(NC(=O)COC(=O)CSc2ccc(Br)cc2C)cc1,"inconclusive: 50.1 µM [inhibitor, partial curve, poor fit]"
16,CN1/C(=C\C(=O)c2cccnc2)Sc2ccccc21,"inconclusive: 20 µM [inhibitor, full curve]"
17,Nc1c(C(=O)c2ccccc2)sc2nsc(SCCN3CCOCC3)c12,inactive
18,CCc1cccc(C)c1NC(=O)COC(=O)c1cc(C)nc2ccccc12,"inconclusive: 141 µM [inhibitor, single point]"
19,COc1ccc(-n2c(SCC(=O)NCc3ccccc3)nc3c([nH]c4ccccc43)c2=O)cc1,"inconclusive: 50.1 µM [inhibitor, full curve, poor fit]"
20,O=C(NCC1CCCO1)c1ccc(-c2ccc(N3CCSCC3)nc2)cc1 (configuration not stated),inactive
21,Cc1ccc(CN2CCCn3nc(C)c(-c4ccccc4-c4ccccc4)c32)o1,inactive

# Reprinted at random: 2 compounds from above.
row,Compound,Potency
14,CC(=O)N(CN1C(=O)C2CC=CCC2C1=O)c1cccc(Cl)c1 (configuration not stated),"inconclusive: 3.16 µM [inhibitor, partial curve, poor fit]"
15,CCN(CC)c1ccc(NC(=O)COC(=O)CSc2ccc(Br)cc2C)cc1,"inconclusive: 50.1 µM [inhibitor, partial curve, poor fit]"
